The target in one experiment is T1, T7-Vps39 (mouse) (UniProt Q8R5L3).
T1 sequence: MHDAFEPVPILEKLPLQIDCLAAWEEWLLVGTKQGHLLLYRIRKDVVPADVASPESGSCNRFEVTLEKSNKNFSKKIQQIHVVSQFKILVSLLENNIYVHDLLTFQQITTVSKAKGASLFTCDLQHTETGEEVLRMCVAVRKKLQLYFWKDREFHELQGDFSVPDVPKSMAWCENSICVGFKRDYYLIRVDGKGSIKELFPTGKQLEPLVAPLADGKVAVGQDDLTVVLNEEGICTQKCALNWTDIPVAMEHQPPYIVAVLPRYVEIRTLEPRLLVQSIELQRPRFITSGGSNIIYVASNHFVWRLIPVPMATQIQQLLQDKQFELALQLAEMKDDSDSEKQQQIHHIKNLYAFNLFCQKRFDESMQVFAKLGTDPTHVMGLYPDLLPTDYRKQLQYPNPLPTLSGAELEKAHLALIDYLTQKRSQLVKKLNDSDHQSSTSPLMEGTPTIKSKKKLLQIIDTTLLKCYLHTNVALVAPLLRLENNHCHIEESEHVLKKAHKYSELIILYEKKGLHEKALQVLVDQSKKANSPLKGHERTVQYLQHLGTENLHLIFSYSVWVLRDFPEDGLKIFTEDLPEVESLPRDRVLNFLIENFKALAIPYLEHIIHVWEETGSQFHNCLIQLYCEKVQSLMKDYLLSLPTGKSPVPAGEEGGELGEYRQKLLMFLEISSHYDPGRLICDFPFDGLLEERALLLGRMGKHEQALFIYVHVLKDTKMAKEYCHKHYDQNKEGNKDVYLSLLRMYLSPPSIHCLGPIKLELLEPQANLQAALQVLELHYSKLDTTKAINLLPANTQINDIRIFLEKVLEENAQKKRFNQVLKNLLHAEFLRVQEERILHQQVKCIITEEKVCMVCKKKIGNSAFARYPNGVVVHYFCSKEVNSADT
As to the kind of experiment: co-IP; COS-7 cells co-transfected with T7-Vps39 or T7-Vps41 and a FLAG-tagged Rab; lysed two days later; immunoprecipitated with anti-T7 antibody; detected by immunoblots.

Sequences of proteins named here, by UniProt entry; tags and fusion partners are left off.
UniProt P53994: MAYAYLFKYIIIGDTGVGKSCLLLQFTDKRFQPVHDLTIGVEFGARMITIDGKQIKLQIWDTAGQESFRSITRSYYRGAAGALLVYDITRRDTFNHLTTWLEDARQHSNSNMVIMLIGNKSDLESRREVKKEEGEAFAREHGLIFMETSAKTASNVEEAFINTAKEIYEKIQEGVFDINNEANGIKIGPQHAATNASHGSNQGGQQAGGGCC
UniProt P59279: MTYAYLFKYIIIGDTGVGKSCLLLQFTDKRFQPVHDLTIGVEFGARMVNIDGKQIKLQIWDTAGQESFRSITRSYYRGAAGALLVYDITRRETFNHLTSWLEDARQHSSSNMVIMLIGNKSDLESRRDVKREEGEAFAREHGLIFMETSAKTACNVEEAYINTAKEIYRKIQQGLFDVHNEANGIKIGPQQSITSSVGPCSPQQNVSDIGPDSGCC

Another experiment addresses T2, T7-Vps41 (mouse) (UniProt Q5KU39).
T2 sequence: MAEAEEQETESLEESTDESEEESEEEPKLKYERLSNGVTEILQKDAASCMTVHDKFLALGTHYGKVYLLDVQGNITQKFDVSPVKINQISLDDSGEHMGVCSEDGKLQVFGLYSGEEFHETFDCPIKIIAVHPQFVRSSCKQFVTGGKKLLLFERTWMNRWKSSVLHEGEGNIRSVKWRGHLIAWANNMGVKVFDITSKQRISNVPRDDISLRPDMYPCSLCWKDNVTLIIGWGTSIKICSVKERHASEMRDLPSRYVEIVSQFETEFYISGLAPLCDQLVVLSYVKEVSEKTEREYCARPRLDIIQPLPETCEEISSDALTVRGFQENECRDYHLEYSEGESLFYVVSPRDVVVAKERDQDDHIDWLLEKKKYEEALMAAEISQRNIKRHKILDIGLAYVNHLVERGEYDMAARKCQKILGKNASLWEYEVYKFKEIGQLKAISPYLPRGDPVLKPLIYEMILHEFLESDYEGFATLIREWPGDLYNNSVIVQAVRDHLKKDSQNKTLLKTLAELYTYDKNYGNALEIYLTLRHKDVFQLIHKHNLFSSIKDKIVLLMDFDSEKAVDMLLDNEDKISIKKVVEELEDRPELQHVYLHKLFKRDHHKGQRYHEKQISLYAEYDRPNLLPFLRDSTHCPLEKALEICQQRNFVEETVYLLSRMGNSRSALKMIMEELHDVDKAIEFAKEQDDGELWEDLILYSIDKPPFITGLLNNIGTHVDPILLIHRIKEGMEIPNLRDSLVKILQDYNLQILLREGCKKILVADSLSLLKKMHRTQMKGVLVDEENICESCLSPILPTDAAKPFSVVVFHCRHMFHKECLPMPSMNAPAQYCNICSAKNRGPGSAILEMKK
The experiment is described as above.

This note sets out measurements from paper PMC5249261.

No constants are given. Whether binding was seen depends on the method and setting. Binding seen in cells or lysates may run through a third protein. Some binding calls cover weakened binding; strength is not graded here.

For the substance “FLAG-tagged Rab2A (from UniProt P53994 1-212)”, the binding result in the experiment with T7-Vps39 (mouse) and in the experiment with T7-Vps41 (mouse) was “binds” each time.

For the substance “FLAG-tagged Rab2B (from UniProt P59279 1-216)”, the binding result in the experiment with T7-Vps39 (mouse) and in the experiment with T7-Vps41 (mouse) was “binds” each time.
